In PubChem BioAssay:
The inconclusive results got no clear call from the source; some entries with a clear call stand among them for comparison. Active and inactive are the calls of the source.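 Rule for the calls: active = thallium flux slope above the same plate's solvent-only control mean plus 3 SD; inconclusive = the two replicate wells disagree; inactive = no significant difference from solvent-only control wells.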

Amino acid sequences for entries named in this document (tags omitted). A change or cut given only in a name is not applied to a line headed by its entry.
UniProt Q9H2X9: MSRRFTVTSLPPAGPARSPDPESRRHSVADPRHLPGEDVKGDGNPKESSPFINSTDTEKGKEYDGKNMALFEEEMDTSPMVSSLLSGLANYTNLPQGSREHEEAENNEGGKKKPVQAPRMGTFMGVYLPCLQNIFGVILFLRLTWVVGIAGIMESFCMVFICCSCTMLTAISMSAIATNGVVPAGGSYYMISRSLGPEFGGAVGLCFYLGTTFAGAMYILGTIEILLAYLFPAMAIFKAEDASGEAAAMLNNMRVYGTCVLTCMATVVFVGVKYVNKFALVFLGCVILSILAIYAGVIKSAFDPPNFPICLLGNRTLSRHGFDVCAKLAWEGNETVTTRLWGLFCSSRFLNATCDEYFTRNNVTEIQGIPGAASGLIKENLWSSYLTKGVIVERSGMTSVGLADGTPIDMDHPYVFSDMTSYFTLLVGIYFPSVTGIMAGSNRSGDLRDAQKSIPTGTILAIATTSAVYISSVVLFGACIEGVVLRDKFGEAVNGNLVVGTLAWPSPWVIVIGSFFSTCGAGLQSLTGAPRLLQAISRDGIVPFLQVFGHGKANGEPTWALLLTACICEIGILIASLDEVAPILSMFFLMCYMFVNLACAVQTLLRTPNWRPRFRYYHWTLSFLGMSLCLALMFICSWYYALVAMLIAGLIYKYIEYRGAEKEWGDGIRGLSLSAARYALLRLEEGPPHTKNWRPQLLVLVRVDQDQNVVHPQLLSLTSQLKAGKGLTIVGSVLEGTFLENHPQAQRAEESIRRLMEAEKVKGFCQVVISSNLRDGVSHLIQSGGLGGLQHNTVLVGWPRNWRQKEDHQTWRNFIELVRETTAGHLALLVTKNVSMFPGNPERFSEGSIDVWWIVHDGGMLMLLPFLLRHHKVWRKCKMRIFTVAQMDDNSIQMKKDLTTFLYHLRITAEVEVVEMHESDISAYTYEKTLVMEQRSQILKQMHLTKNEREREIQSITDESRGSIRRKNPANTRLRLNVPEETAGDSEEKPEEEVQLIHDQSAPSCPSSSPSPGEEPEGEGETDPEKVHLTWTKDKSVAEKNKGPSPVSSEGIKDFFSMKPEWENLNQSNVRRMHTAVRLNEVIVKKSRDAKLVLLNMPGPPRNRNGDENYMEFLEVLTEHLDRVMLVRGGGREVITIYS

biological target: Solute carrier family 12 member 5 (Homo sapiens) (UniProt Q9H2X9); experiment: retest of KCC2 transport modulators without sodium – cell-based, HEK293 KCC2, thallium flux, secondary assay, confirmation (AID 1713); conditions: FluoZin2 fluorescence, at 10 µM, hits give high values
Method in brief: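 System: HEK/KCC2 cells | Compound: 10 µM single dose, 0.1% DMSO | Repeats: Two replicates | Benchmarks: Bumetanide 2 mM positive, DMSO negative | Times: Dye loading 48 min | Signal: FluoZin2 fluorescence, 480/540 nm, 1 Hz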

Structure (SMILES)	normalised thallium flux (F/F0 slope)
CCCCn1c(-c2csc(CCC)c2)n[nH]c1=S	inconclusive: 0.0214
CCn1c(O)c(N=NC(=O)c2cccs2)c2ccccc21	inconclusive: 0.0117
CC(C)(C)c1ccc(NC(=O)C(=O)C2C(=O)Nc3ccccc32)cc1 (stereo not given)	inactive: 0.00569
Cc1onc(-c2ccccc2)c1C(=O)NC(=S)Nc1sc2c(c1C#N)CCC(C)C2 (stereo not given)	inconclusive: 0.0228
S=C(NCCc1ccccc1)N/N=C/c1c(Cl)cccc1Cl	inconclusive: 0.00483
Cc1c(N=C2Nc3cccc4cccc2c34)c(=O)n(-c2ccccc2)n1C	inconclusive: 0.00505
O=C(NNc1nc(-c2ccccc2)cs1)c1ccccc1	inactive: 0.0106
O=C(O)/C=C/c1cn(Cc2ccccc2)nc1-c1ccc(Cl)cc1	inconclusive: 0.00772
Cc1[nH]n(-c2ccccc2)c(=O)c1/C=N/N(c1ccccc1)c1ccccc1	inconclusive: 0.0087
COc1ccc(N2C(=S)N=C(Nc3ccccc3)C23CCCCC3)cc1	inconclusive: 0.0126
Cc1cccc(Nc2nnc(SCC(=O)Nc3cccc(S(=O)(=O)N4CCCCC4)c3)s2)c1	inactive: 0.00719
CCCCNC(=S)N=Nc1c(O)[nH]c2ccccc12	inconclusive: 0.0084
O=C(NC(=S)Nc1cccc2ncccc12)c1ccco1	inconclusive: 0.0205
Cc1cccc(Nc2nnc(SCC(=O)c3ccc(Br)s3)s2)c1C	inconclusive: 0.0112
Cc1ccc2c(c1)C1CN(C)CCC1N2C(=S)NC(=O)c1ccc(Br)cc1 (stereo not given)	active: 0.0413
O=C(NC(=S)Nc1ccc(CN2CCOCC2)cc1)c1ccco1	inconclusive: 0.0117
CCCCn1c(SCC(=O)NCC2CCCO2)nc2ccc(N3CCOCC3)cc2c1=O (stereo not given)	inactive: 0.0177
COc1cc(/C=N/NC(=O)CN(Cc2ccccc2)S(=O)(=O)c2ccc3c(c2)OCCO3)ccc1O	inactive: 0.00844
COc1cc2c(cc1OC)CN(C(=S)NC(=O)c1ccccc1)CC2	active: 0.026
Cc1nn(-c2ccc(F)cc2)c(Cl)c1/C=C(\CCC(=O)O)c1nc2ccccc2s1	inconclusive: 0.00511

Two of the compounds above, as a markdown table:

| Structure (SMILES) | normalised thallium flux (F/F0 slope) |
| --- | --- |
| Cc1cccc(Nc2nnc(SCC(=O)Nc3cccc(S(=O)(=O)N4CCCCC4)c3)s2)c1 | inactive: 0.00719 |
| Cc1ccc2c(c1)C1CN(C)CCC1N2C(=S)NC(=O)c1ccc(Br)cc1 (stereo not given) | active: 0.0413 |

Going on with the list.

Structure (SMILES)	normalised thallium flux (F/F0 slope)
CCn1c(=S)[nH]c2cc(Cl)ccc21	inconclusive: 0.00778
Cc1ccc(OCC(=O)NNC(=S)NC(=O)C(C)(C)C)c(Br)c1	active: 0.0253
O=C(Nc1nc(-c2ccccn2)cs1)c1ccc(Cl)s1	inactive: 0.00562
C=C(C)CNC(=S)N/N=C/c1c(F)cccc1F	active: 0.0204
O=C1/C(=C/c2ccccc2O)SC(=S)N1Cc1cccnc1	inactive: 0.00625
O=C(/C=C/c1ccccc1)NC(=S)N1CCSCC1	active: 0.0223
O=S(=O)(NCc1csc(-c2cccs2)n1)c1ccc(Cl)cc1	inconclusive: 0.0119
CCCc1nc2c(o1)CC(CC(C)SCC)CC2=O (stereo not given)	inactive: 0.00621
CC(C)(C)c1cc(C(=O)NNC(=O)c2ccc(C(F)(F)F)cc2)no1	active: 0.0283
O=C1c2ccccc2-c2cccc(NS(=O)(=O)c3ccc(C(F)(F)F)cc3)c21	inconclusive: 0.0246
CCC1=NN2C(=N)/C(=C\c3cccn3-c3ccc(Cl)cc3)C(=O)N=C2S1	inconclusive: 0.0124
N=C1S/C(=C\c2ccco2)C(=O)N1c1nccs1	active: 0.0277
S=c1[nH]nc(-c2cccc(Cl)c2)n1/N=C/c1ccco1	inconclusive: 0.0131
CCCCNC(=O)[C@H](CSCc1ccccc1)N1Cc2ccccc2C1=O	inconclusive: 0.00649
C/C(=N\NC(=O)c1cc([N+](=O)[O-])cc([N+](=O)[O-])c1)c1ccco1	active: 0.0304
Cc1cc(C)c(S(=O)(=O)/N=C2/C=C(SCC(=O)O)C(=O)c3ccccc32)cc1C	inactive: 0.00613
Cc1ccc(N=Cc2c(O)n(-c3nccs3)c(=O)c3ccccc23)c(C)c1	active: 0.000176
COc1cc(OC)c(OC)cc1/C=C/c1cc(C(F)(F)F)[nH]c(=O)n1	inconclusive: 0.00443
CC(C)Cn1c(=S)[nH]c2cc(Cl)ccc21	inconclusive: 0.00922
CCn1c(=O)c2c(n3c(=S)[nH]nc13)-c1ccccc1CC21CCCCC1	inactive: 0.00721
